Results are given in words; binding and its absence hold for the method and conditions named.
Molecular target: PSB‐I^143–238 construct (peptide‐substrate–binding domain of the α‐I subunit of human collagen prolyl 4‐hydroxylase I) (human) (UniProt P13674)
Assay: SEC-MALS; PSB‐I^143–238 on Superdex 200 Increase 10/300 GL, column at +5 to +7°C, MALS and RI detectors at +20°C; both purified

The chains behind the UniProt entries cited, without tags or fusion partners. Residues count along the entry.
UniProt P13674, residues 160-255: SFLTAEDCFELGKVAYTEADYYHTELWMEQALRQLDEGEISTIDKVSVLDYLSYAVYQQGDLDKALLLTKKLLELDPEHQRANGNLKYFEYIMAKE

binding: no binding
Substance: PSB‐I^143–238 construct (peptide‐substrate–binding domain of the α‐I subunit of human collagen prolyl 4‐hydroxylase I) (from UniProt P13674 160-255) (domain or fragment)

Source: paper PMC12433258, “Binding Differences of the Peptide‐Substrate–Binding Domain of Collagen Prolyl 4‐Hydroxylases I and II for Proline‐ and Hydroxyproline‐Rich Peptides” (Proteins, 2025)
